# Measurements reported in PubChem BioAssay AID602196 (INSERM, 2012)
# Aim: 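Genes whose knock-down alters cisplatin killing of lung cancer cells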
# Cells: human A549 lung cancer cells
# Reagent: siRNA pair against human genes
# Timing: 48 h transfection before cisplatin; time from cisplatin to read-out not stated
# Treatment: cisplatin at a dose killing half of control-siRNA cells; exact dose and duration not given
# Detection: 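Shift in cisplatin death relative to control siRNA, from -50 (all cells die) to +50 (no cells die); siRNAs harmful on their own scored 0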
# Reading the numbers: two-siRNA summed score (-2 to +2): higher = both siRNAs protect from cisplatin killing; -2 means both sensitise; mean protection from cisplatin (shift in death) and protection from cisplatin (shift in death), siRNA C: higher = protection from cisplatin killing
# Rule for the call: 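Each siRNA scores 0 if harmful alone by LDH or WST-1, otherwise +1 if it reduces and -1 if it increases cisplatin killing; a gene is active when both siRNAs agree (sum +2 or -2)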
# Calls: active = both siRNAs shift cisplatin killing the same way; inactive = no consistent shift, or siRNA harmful alone
# The deposit covers about 23,000 reagents; shown is an unselected part. 455 of them (2%) count as active. 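Active includes both protection and sensitisation; some change values fall well beyond the stated -50 to +50 range.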 The numbers tell different reagents against one gene apart. Not all columns of the deposit are shown. Reagent sequences are not shown. The record does not give: the amount of reagent.
gene,reagent,two-siRNA summed score (-2 to +2),mean protection from cisplatin (shift in death) (%),"protection from cisplatin (shift in death), siRNA C (%)",Call
MAGEB2 (MAGE family member B2),1,0,1.9,-7,inactive
TICAM2 (TIR domain containing adaptor molecule 2),1,-1,-12.3,-4.7,inactive
ANTKMT (adenine nucleotide translocase lysine methyltransferase),1,0,2.4,-11.2,inactive
TAGAP (T cell activation RhoGTPase activating protein),1,-1,-4.1,8.6,inactive
SIMC1 (SUMO interacting motifs containing 1),1,0,0.3,0.5,inactive
LTB (lymphotoxin beta),1,0,2.7,1.6,inactive
MYH3 (myosin heavy chain 3),1,1,14.3,14.7,inactive
IL32 (interleukin 32),1,0,15.4,10.2,inactive
IL32 (interleukin 32),2,2,20.1,20.2,active

The list goes on, starting with the last 3 of the part before.
gene,reagent,two-siRNA summed score (-2 to +2),mean protection from cisplatin (shift in death) (%),"protection from cisplatin (shift in death), siRNA C (%)",Call
MYH3 (myosin heavy chain 3),1,1,14.3,14.7,inactive
IL32 (interleukin 32),1,0,15.4,10.2,inactive
IL32 (interleukin 32),2,2,20.1,20.2,active
LCN2 (lipocalin 2),1,1,13.4,15.7,inactive
H3C7 (H3 clustered histone 7),1,1,21.9,32.1,inactive
ARVCF (ARVCF delta catenin family member),1,-1,-10.2,-13.5,inactive
HEG1 (heart development protein with EGF like domains 1),1,0,2.5,16.6,inactive
LOC389189,1,0,4.6,4.4,inactive
CENPN (centromere protein N),1,0,-10.3,-13.4,inactive
FKBP6 (FKBP prolyl isomerase family member 6 (inactive)),1,1,11.5,13.4,inactive
DRGX (dorsal root ganglia homeobox),1,0,2.2,7.1,inactive
"SEC23A (SEC23 homolog A, COPII component)",1,2,21.5,22.5,active
H2AX (H2A.X variant histone),1,0,7.9,6.5,inactive
SLC29A4,1,1,10.4,8.1,inactive
CTRB1 (chymotrypsinogen B1),1,0,1.1,10.7,inactive
DYNLT3 (dynein light chain Tctex-type 3),1,1,21.6,6.4,inactive
LOC440751,1,1,10.9,16.7,inactive
